Source: PubChem BioAssay AID624246 (National Center for Advancing Translational Sciences (NCATS), 2012)
In all, about 370,000 compounds went through this assay and about 100 (0.027%) were called active. This list was built around the results that the source calls inconclusive (neither active nor inactive); the mix of calls is not that of the screen. The call rests on the fitted dose curve; in most records, active means well fitted inhibition curve with a large enough effect in the polarisation, with a control signal flat; inconclusive means small, poorly fitted or top-dose-only effect, or effect the other way, or a change in a side signal; inactive means no such curve, though single readings can be large or run the other way; the % refers to the polarisation. Potencies of inconclusive entries are doubtful fits and often do not repeat. A note “side channel” means that the fit belongs to a control or component signal, not to the main read-out.
Potency means the concentration at half of the fitted maximal effect.
Wherever FP activity, negative = inhibition is given: % of control where 0% means no effect.

Amino acid sequences for entries named in this document (tags omitted). A change or cut given only in a name is not applied to a line headed by its entry.
UniProt P11308: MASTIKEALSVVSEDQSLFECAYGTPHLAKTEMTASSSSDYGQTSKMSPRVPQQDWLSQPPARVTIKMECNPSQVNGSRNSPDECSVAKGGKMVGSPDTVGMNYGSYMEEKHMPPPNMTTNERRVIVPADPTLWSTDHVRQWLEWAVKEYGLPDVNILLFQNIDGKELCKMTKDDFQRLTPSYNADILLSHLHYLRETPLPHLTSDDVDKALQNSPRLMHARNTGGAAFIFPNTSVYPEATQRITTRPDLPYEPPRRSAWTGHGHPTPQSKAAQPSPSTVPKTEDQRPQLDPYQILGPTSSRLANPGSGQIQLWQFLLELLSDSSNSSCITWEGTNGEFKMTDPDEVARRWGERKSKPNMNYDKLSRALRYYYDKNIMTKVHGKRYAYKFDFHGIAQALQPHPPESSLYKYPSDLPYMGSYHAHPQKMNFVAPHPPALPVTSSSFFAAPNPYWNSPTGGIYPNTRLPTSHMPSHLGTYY

These compounds were tested against Transcriptional regulator ERG (Homo sapiens) (UniProt P11308) (assay: qHTS for Small Molecule Inhibitors of the ERG Ets/DNA interaction). Settings: fluorescence polarization, His-ERG Ets domain / labelled DNA; FP activity, negative = inhibition: at 76.9 µM (top of the series).
Summary of the method: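 His-tagged ERG Ets domain (1 uM in the protein solution; 300mM KCl, 50mM Tris-HCl, 1mM EDTA, 1mM DTT, pH 7.5) received compound, then a probe mix of 5 nM fluorescein-DNA and 100nM Texas-615-DNA. Fluorescence polarization was read for both dyes.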
In the case of O=C(Nc1cc(-c2nc3cc(Cl)ccc3o2)ccc1Cl)c1cccs1, the Potency is reported as inconclusive: 31.6 µM [inhibitor, partial curve, poor fit]. In the case of CCOc1ccccc1NC(=O)COc1ccc2ccc(=O)oc2c1, the Potency is reported as inconclusive: 6.31 µM [inhibitor, single point]. For CCCCc1ccc(-n2nc3cc(C)c(NC(=O)Cc4ccccc4)cc3n2)cc1, the Potency was inconclusive: 35.5 µM [quencher, side channel, partial curve, poor fit]. With N#Cc1c(-n2ncnc2-c2cccc(Cl)c2)sc2c1CCCCC2 the “FP activity, negative = inhibition” value was inactive: -1.35%. CCC(=O)N1c2ccc(S(=O)(=O)NC3CCCCC3)cc2CC1C (stereo not drawn) was tested, and the Potency was inconclusive: 50.1 µM [inhibitor, single point]. With CCN(CC)S(=O)(=O)c1cccc(NC(=O)Nc2cccc(C(F)(F)F)c2)c1 the Potency was inconclusive: 11.2 µM [quencher, side channel, partial curve, poor fit]. CCCC(=O)NC(=S)Nc1ccc(C(C)=O)cc1 was tested, and the “FP activity, negative = inhibition” value was inactive: -0.529%. With O=C(O)c1cccc(NC(=S)NC(NC(=O)c2ccco2)C(Cl)(Cl)Cl)c1 (stereo not drawn) the “FP activity, negative = inhibition” value was inactive: 2.86%. In the case of COCC(=O)NC1CCN(S(=O)(=O)c2cccc(C(C)=O)c2)CC1, the Potency is reported as inconclusive: 7.08 µM [inhibitor, single point]. For CCCN1C(=O)NC2(O)C(=O)c3ccccc3C12O (stereo not drawn), the “FP activity, negative = inhibition” value was inactive: 8.1%. With Cc1ccc(S(=O)(=O)N2CCCc3cc(NC(=O)c4ccccc4Cl)ccc32)cc1 the Potency was inconclusive: 12.6 µM [fluorescent, side channel, partial curve, poor fit]. O=C(COC(=O)CSc1ccc([N+](=O)[O-])cc1)NCC1CCCO1 (stereo not drawn) was tested, and the “FP activity, negative = inhibition” value was inactive: -1.08%. With COc1cc(/C=C2/C(=N)N3C(=NC2=O)SN=C3S(C)(=O)=O)ccc1OS(=O)(=O)c1ccc(C)cc1 the Potency was inconclusive: 50.1 µM [inhibitor, single point]. In the case of Clc1ccc(CSc2ccc(-c3cccnc3)nn2)cc1, the Potency is reported as inconclusive: 10 µM [inhibitor, single point]. With Cc1oc(-c2cccc(F)c2)nc1CN1CCCCC1CCn1cccn1 (stereo not drawn) the Potency was inconclusive: 35.5 µM [inhibitor, partial curve, poor fit]. For COc1ccc(CNC(=O)CCc2c(C)nc3c(c2C)c(=O)n(C)c(=O)n3C)cc1, the Potency was inconclusive: 10 µM [quencher, side channel, full curve]. CCn1cc(C(=O)NCCc2ccccc2)c(=O)c2cc(S(=O)(=O)N3CCOCC3)ccc21 was tested, and the Potency was inconclusive: 25.1 µM [quencher, side channel, partial curve, poor fit]. For Nc1nn2c(-c3ccccc3)cc(=O)[nH]c2c1N=Nc1ccc(O)cc1, the Potency was inconclusive: 28.2 µM [quencher, side channel, partial curve, poor fit]. For CCn1c(CSc2nccn2C)nc2cc(C(=O)O)ccc21, the Potency was inconclusive: 39.8 µM [fluorescent, side channel, partial curve, poor fit]. With CCC(=O)N1CCc2cc(S(=O)(=O)NC(C(=O)NCc3ccc(OC)cc3)C(C)C)ccc21 (stereo not drawn) the Potency was inconclusive: 50.1 µM [quencher, side channel, single point]. For COc1cccc(-n2nnnc2SCC(=O)NC2CCCC2)c1, the Potency was inconclusive: 5.01 µM [fluorescent, side channel, full curve, poor fit]. With Cc1ccc(COc2ccccc2C(=S)N2CCCC2)cc1 the “FP activity, negative = inhibition” value was inactive: -7%. In the case of CC1CCCCC1NC(=S)Nc1ccc(Cl)cc1Cl (stereo not drawn), the Potency is reported as inconclusive: 7.08 µM [inhibitor, single point]. With O=C(Nc1ccccc1)N1CCOCC1 the “FP activity, negative = inhibition” value was inactive: 5.91%. For CN1CCN(NC(=O)Nc2ccc(Br)cc2)CC1, the Potency was inconclusive: 50.1 µM [inhibitor, single point]. For Cc1nccn1C[C@@H]1CCc2c(c3ccccc3n2C)C1=O, the Potency was inconclusive: 0.794 µM [inhibitor, full curve, poor fit]. COc1ccccc1N(C)S(=O)(=O)c1ccc(C(=O)OCC(=O)N2CCCCCC2)cc1 was tested, and the Potency was inconclusive: 25.1 µM [inhibitor, partial curve, poor fit]. For CC(C)(C)NC(=O)CC1C(=O)NCCN1Cc1c(F)cccc1Cl (stereo not drawn), the Potency was inconclusive: 11.2 µM [quencher, side channel, single point]. With CC1=C(C(=O)Nc2cc(C)cc(C)c2)C2(CCCCC2)OC1=O the Potency was inconclusive: 39.8 µM [quencher, side channel, single point]. With CCn1cc(CN(C)C(=O)/C=C/c2ccc([N+](=O)[O-])cc2)c(C)n1 the Potency was inconclusive: 6.31 µM [inhibitor, single point]. In the case of COc1ccc(/C=C2\SC(=S)N(CCC(=O)NC3=NCCS3)C2=O)cc1OC, the Potency is reported as inconclusive: 50.1 µM [fluorescent, single point]. For C/C(=N\O)C(=O)C(CN1CCCCC1)CN1CCCCC1, the Potency was inconclusive: 56.2 µM [fluorescent, side channel, single point]. In the case of O=S(=O)(Nc1cc(Sc2cccc3cccnc23)c(O)c2ccccc12)c1ccc(F)cc1, the Potency is reported as inconclusive: 35.5 µM [fluorescent, side channel, single point]. In the case of CN(C(=S)Oc1ccc(C(=O)Nc2ccccc2)cc1)c1ccccc1, the “FP activity, negative = inhibition” value is reported as inactive: -0.243%. For N#CC(C(=O)NCc1ccccc1)c1nc2ccccc2nc1N1CCCC1 (stereo not drawn), the Potency was inconclusive: 7.94 µM [inhibitor, full curve, poor fit]. In the case of CC1(C)CC(C(CC(=O)N2CCCC2)Cc2ccccc2)CCO1 (stereo not drawn), the Potency is reported as inconclusive: 44.7 µM [inhibitor, single point]. Cc1c(C(=O)Cc2ccccc2)n(C)c2ccccc12 was tested, and the Potency was inconclusive: 6.31 µM [inhibitor, single point]. For O=C(Nc1cc(C(F)(F)F)ccc1N1CCCCC1)c1cccc([N+](=O)[O-])c1, the Potency was inconclusive: 63.1 µM [inhibitor, single point]. For CCNC(=S)N/N=C/c1ccc(OCc2ccc(C(=O)OC)cc2)cc1, the “FP activity, negative = inhibition” value was inactive: 9.62%. With NC(=O)c1ccsc1NC(=O)c1ccc(S(=O)(=O)N2CCCCC2)cc1 the “FP activity, negative = inhibition” value was inactive: 15.6%. For CCc1cc[n+](-c2nc([O-])sc2C=O)cc1, the Potency was inconclusive: 7.08 µM [inhibitor, partial curve, poor fit]. O=C(c1ccc(-n2cncn2)c([N+](=O)[O-])c1)N1CCN(c2cccc(Cl)c2)CC1 was tested, and the “FP activity, negative = inhibition” value was inactive: 11.2%. For COc1cccc(NC(=O)Nc2cccn(Cc3ccccc3)c2=O)c1, the “FP activity, negative = inhibition” value was inactive: -0.904%. With CCCN(CC(=O)Nc1ccc(OC)c(OC)c1)CC(=O)Nc1ccc(F)c(F)c1F the Potency was inconclusive: 5.62 µM [inhibitor, single point]. With COc1ccc(N(C(=O)c2snc(C(N)=O)c2N)C(C(=O)NCC2CCCO2)c2ccc3ncccc3c2)cc1OC (stereo not drawn) the Potency was inconclusive: 11.2 µM [inhibitor, single point]. In the case of CCOC(=O)c1cnc2ccc(OC)cc2c1Nc1cccc(C(C)=O)c1, the Potency is reported as inconclusive: 2.24 µM [quencher, side channel, full curve, poor fit]. In the case of COC(=O)CN1C(=O)S/C(=C/c2ccc(N3CCCCC3)o2)C1=O, the Potency is reported as inconclusive: 35.5 µM [fluorescent, side channel, partial curve, poor fit]. With Cc1cc(C)n2nc3nc(N4CCCCC4)nc(-c4ccco4)c3c2n1 the “FP activity, negative = inhibition” value was inactive: -2.69%. In the case of Cc1n[nH]c(C)c1N1C(=O)c2cccc3c(N4CCCCCC4)ccc(c23)C1=O, the Potency is reported as inconclusive: 35.5 µM [fluorescent, side channel, partial curve, poor fit]. In the case of CCN(CC)CCn1c(=N)n(CC(O)COc2ccccc2C)c2ccccc21 (stereo not drawn), the “FP activity, negative = inhibition” value is reported as inactive: 2.83%. With CN(Cc1ccccc1)C(=O)COC(=O)c1cc(=O)[nH]c2ccccc12 the Potency was inconclusive: 1.26 µM [inhibitor, partial curve, poor fit]. In the case of Nc1cnccc1C(=O)O, the Potency is reported as inconclusive: 39.8 µM [inhibitor, partial curve, poor fit]. With Cc1ccc(-n2c(C)c(C)c3c(N)ncnc32)cc1 the Potency was inconclusive: 28.2 µM [inhibitor, single point]. For COCCN(Cc1cc2cc(C)ccc2n2nnnc12)C(=S)Nc1ccc(OC)cc1, the Potency was inconclusive: 31.6 µM [inhibitor, partial curve, poor fit]. C=CCN1C(=O)/C(=C\C=C2\N(C)c3ccccc3C2(C)C)SC1=S was tested, and the Potency was inconclusive: 8.91 µM [inhibitor, single point]. In the case of Cc1cc(OCc2cc3c(cc2Cl)OCO3)c2c(C)cc(=O)oc2c1, the Potency is reported as inconclusive: 11.2 µM [inhibitor, single point]. With CC(C)CNC(=O)/C=C/C(=O)O the Potency was inconclusive: 3.55 µM [inhibitor, partial curve, poor fit]. In the case of O=C(N/N=C/c1c[nH]c2ccccc12)c1ccccc1Cl, the Potency is reported as inconclusive: 31.6 µM [inhibitor, partial curve, poor fit]. With COC(=O)c1ccccc1OCCOc1ccccc1C(=O)OC the “FP activity, negative = inhibition” value was inactive: 4.25%. With CS(=O)(=O)N1c2cccc3cccc(c23)S1(=O)=O the Potency was inconclusive: 4.47 µM [inhibitor, partial curve, poor fit]. For CCCCn1c(N)c(N(CCOC)C(=O)c2ccc(C)c(S(=O)(=O)N3CCCCC3)c2)c(=O)[nH]c1=O, the “FP activity, negative = inhibition” value was inactive: -15.9%. In the case of Cc1cc(C)nc(Sc2ccc(/C=C(\C#N)C(N)=O)o2)n1, the Potency is reported as inconclusive: 28.2 µM [inhibitor, partial curve, poor fit]. CCNC(=S)NC(=NCc1cccnc1)Nc1nc(C)cc(C)n1 was tested, and the Potency was inconclusive: 22.4 µM [inhibitor, partial curve, poor fit].
